Assay results as given in publication doi:10.1101/2020.12.16.423021.
No constants are given. Whether binding was seen depends on the method and setting. Some results given as binding are weak or reduced against the parent protein; the word gives no strength.

Amino acid sequences for entries named in this document (tags omitted). Residues count along the entry.
UniProt Q8CIZ8, residues 764-2813: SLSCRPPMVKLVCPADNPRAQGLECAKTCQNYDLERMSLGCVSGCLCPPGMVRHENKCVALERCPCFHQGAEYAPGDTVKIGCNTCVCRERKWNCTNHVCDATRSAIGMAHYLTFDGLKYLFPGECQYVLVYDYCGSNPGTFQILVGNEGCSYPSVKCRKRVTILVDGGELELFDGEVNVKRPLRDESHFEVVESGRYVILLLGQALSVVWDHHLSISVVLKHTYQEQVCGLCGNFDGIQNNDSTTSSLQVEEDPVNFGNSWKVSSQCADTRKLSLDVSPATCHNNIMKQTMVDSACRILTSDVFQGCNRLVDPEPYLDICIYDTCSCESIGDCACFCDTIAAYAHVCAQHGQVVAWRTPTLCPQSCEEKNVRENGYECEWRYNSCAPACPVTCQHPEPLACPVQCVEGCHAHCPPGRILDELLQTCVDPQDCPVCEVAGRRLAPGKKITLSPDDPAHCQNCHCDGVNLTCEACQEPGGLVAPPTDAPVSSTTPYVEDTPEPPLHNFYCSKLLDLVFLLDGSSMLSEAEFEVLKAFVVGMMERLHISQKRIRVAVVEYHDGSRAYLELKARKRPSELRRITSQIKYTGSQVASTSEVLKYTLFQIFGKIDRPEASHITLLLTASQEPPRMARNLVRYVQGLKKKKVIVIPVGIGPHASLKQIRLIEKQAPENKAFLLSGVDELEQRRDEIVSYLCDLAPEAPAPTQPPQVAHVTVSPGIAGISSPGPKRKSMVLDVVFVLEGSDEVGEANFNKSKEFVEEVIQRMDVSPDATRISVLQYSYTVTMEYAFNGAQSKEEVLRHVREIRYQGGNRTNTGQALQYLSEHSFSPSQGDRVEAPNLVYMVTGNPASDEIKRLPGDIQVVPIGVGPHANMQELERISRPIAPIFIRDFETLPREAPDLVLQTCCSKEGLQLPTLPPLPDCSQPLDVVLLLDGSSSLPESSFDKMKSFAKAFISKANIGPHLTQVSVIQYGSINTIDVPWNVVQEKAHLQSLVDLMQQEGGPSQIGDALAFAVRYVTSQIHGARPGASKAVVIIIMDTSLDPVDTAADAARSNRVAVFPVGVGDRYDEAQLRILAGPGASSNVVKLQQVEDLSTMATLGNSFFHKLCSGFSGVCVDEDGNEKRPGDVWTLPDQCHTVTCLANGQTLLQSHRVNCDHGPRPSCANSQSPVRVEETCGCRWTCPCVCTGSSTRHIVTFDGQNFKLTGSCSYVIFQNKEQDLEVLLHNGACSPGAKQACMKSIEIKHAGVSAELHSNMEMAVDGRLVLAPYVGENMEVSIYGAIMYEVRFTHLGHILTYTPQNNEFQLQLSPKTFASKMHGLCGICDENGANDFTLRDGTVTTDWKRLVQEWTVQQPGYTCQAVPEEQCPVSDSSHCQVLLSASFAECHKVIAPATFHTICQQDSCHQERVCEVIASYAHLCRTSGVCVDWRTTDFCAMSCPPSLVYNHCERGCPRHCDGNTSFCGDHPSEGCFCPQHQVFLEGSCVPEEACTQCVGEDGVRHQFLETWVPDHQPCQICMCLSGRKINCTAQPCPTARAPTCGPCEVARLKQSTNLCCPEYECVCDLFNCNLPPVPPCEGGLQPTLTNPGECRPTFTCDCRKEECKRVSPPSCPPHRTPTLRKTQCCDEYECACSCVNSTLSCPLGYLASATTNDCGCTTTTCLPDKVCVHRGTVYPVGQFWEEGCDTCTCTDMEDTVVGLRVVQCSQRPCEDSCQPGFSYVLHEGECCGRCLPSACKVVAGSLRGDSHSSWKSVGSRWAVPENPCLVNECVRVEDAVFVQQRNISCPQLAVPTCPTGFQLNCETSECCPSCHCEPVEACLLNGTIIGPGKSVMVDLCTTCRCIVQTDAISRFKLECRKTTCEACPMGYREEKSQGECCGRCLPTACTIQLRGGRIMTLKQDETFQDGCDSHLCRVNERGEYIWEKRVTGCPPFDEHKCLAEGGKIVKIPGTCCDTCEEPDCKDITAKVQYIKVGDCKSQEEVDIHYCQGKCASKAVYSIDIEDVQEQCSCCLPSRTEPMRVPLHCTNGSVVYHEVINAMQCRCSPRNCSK

Assays:
[1] = target: murine von Willebrand factor (VWF) (mouse), Q8CIZ8; assay: platelet adhesion under flow; conditions: remark: other sources report otherwise
[2] = target: murine von Willebrand factor (VWF) (mouse), Q8CIZ8; assay: static platelet adhesion and spreading on coated coverslips; conditions: remark: other sources report otherwise
[3] = target: murine von Willebrand factor (VWF) (mouse) (UniProt Q8CIZ8); assay: as above

Row | binding [1] | binding [2] | binding [3] | Binder
1 | binds | binds | – | murine GPIbα (glycoprotein Ibα), wild type, on platelets of GpIbα^+/+ mice, O35930 17-734 (receptor) QHTCSISKVTSLLEVNCENKKLTALPADLPADTGILHLGENQLGTFSTASLVHFTHLTYLYLDRCELTSLQTNGKLIKLENLDLSHNNLKSLPSLGWALPALTTLDVSFNKLGSLSPGVLDGLSQLQELYLQNNDLKSLPPGLLLPTTKLKKLNLANNKLRELPSGLLDGLEDLDTLYLQRNWLRTIPKGFFGTLLLPFVFLHANSWYCDCEILYFRHWLQENANNVYLWKQGVDVKDTTPNVASVRCANLDNAPVYSYPGKGCPTSSGDTDYDDYDDIPDVPATRTEVKFSTNTKVHTTHWSLLAAAPSTSQDSQMISLPPTHKPTKKQSTFIHTQSPGFTTLPETMESNPTFYSLKLNTVLIPSPTTLEPTSTQATPEPNIQPMLTTSTLTTPEHSTTPVPTTTILTTPEHSTIPVPTTAILTTPKPSTIPVPTTATLTTLEPSTTPVPTTATLTTPEPSTTLVPTTATLTTPEHSTTPVPTTATLTTPEHSTTPVPTTATLTTPEPSTTLTNLVSTISPVLTTTLTTPESTPIETILEQFFTTELTLLPTLESTTTIIPEQNSFLNLPEVALVSSDTSESSPFLNSDFCCFLPLGFYVLGLLWLLFASVVLILLLTWTWHVTPHSLDMEQSAALATSTHTTSLEVQRARQVTMPRAWLLFLQGSLPTFRSSLFLWVRPNGRVGPLVAGRRPSALSQGRGQDLLGTVGIRYSGHSL
2 | – | – | binds weakly | murine GPIbα (glycoprotein Ibα), wild type, on platelets of GpIbα^+/+ mice (receptor, UniProt O35930 17-734) QHTCSISKVTSLLEVNCENKKLTALPADLPADTGILHLGENQLGTFSTASLVHFTHLTYLYLDRCELTSLQTNGKLIKLENLDLSHNNLKSLPSLGWALPALTTLDVSFNKLGSLSPGVLDGLSQLQELYLQNNDLKSLPPGLLLPTTKLKKLNLANNKLRELPSGLLDGLEDLDTLYLQRNWLRTIPKGFFGTLLLPFVFLHANSWYCDCEILYFRHWLQENANNVYLWKQGVDVKDTTPNVASVRCANLDNAPVYSYPGKGCPTSSGDTDYDDYDDIPDVPATRTEVKFSTNTKVHTTHWSLLAAAPSTSQDSQMISLPPTHKPTKKQSTFIHTQSPGFTTLPETMESNPTFYSLKLNTVLIPSPTTLEPTSTQATPEPNIQPMLTTSTLTTPEHSTTPVPTTTILTTPEHSTIPVPTTAILTTPKPSTIPVPTTATLTTLEPSTTPVPTTATLTTPEPSTTLVPTTATLTTPEHSTTPVPTTATLTTPEHSTTPVPTTATLTTPEPSTTLTNLVSTISPVLTTTLTTPESTPIETILEQFFTTELTLLPTLESTTTIIPEQNSFLNLPEVALVSSDTSESSPFLNSDFCCFLPLGFYVLGLLWLLFASVVLILLLTWTWHVTPHSLDMEQSAALATSTHTTSLEVQRARQVTMPRAWLLFLQGSLPTFRSSLFLWVRPNGRVGPLVAGRRPSALSQGRGQDLLGTVGIRYSGHSL
